Data as given in PMC11095200.
These are yes or no findings as the source states them, for the method shown. Binding seen in cells or lysates may run through a third protein. Some entries that bind do so weakly or less than the wild type.

Molecular target: T1, steroidogenic acute regulatory protein (StAR) (UniProt P51557)
T1 sequence: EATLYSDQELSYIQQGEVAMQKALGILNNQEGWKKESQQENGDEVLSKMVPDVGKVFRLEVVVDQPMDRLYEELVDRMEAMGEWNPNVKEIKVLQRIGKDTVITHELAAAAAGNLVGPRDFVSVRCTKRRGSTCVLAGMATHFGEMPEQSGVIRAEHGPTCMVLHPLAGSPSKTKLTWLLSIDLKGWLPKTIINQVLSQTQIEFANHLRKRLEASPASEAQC
Test: co-IP; Y1 cells with the indicated plasmids; lysis buffer 0.5% Nonidet P‐40, 5 mM EDTA, 5 mM EGTA in PBS; beads conjugated with indicated antibodies, 4 °C, 6–8 h; immunoblotting

- binding: binds
B1: 14‐3‐3γ adapter protein (protein, UniProt P61982 1-247)
chain: MVDREQLVQKARLAEQAERYDDMAAAMKNVTELNEPLSNEERNLLSVAYKNVVGARRSSWRVISSIEQKTSADGNEKKIEMVRAYREKIEKELEAVCQDVLSLLDNYLIKNCSETQYESKVFYLKMKGDYYRYLAEVATGEKRATVVESSEKAYSEAHEISKEHMQPTHPIRLGLALNYSVFYYEIQNAPEQACHLAKTAFDDAIAELDTLNEDSYKDSTLIMQLLRDNLTLWTSDQQDDDGGEGNN
